{"source": "PubChem BioAssay AID1508597 (Cure First, 2020)", "aim": "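Knock-downs altering ovarian cancer cell survival with or without PARP inhibitor rucaparib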 (primary screen)", "system": "human ovarian carcinoma lines grown from tumours: OCI-P5x (papillary serous) and OCI-C5x (clear cell)", "knock-down reagent": "siRNA pool against human genes, 1.25 pmol siRNA per well", "duration": "72 h or 96 h, depending on the cell culture", "challenge": "rucaparib 20 µM (about IC30) or vehicle, present until read-out", "rucaparib or vehicle": "Vehicle", "cell line": "OCI-C5x (clear cell)", "detection": "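ATP luminescence measured at 72 or 96 h according to the culture, then normalised and expressed as percent viability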", "direction": "viability, normalised: higher = more viable cells remaining", "active means": "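Active when normalised viability falls below 80 percent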", "meaning of the calls": "active = viability under 80%; inactive = viability 80% or more", "note": "This is an unselected part of the about 2,100 reagents, under one of the conditions tested. 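Calls flag viability under 80% in either arm, not effects specific to rucaparib; the reference for percent is not stated.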 Entries without a mark were called inactive. Some reagents were tested in more than one well and are listed for each. No sequences are given here. The record does not give: the 100% reference."}
{"target gene":"TERF2 (telomeric repeat binding factor 2)","technical replicate":"1","viability, normalised (%)":"64.9 (active)"}
{"target gene":"TERF2 (telomeric repeat binding factor 2)","technical replicate":"1","viability, normalised (%)":"60.6 (active)"}
{"target gene":"TERF2 (telomeric repeat binding factor 2)","technical replicate":"2","viability, normalised (%)":"46 (active)"}
{"target gene":"TERF2 (telomeric repeat binding factor 2)","technical replicate":"2","viability, normalised (%)":81.4}
{"target gene":"TERF2 (telomeric repeat binding factor 2)","technical replicate":"3","viability, normalised (%)":"45 (active)"}
{"target gene":"TERF2 (telomeric repeat binding factor 2)","technical replicate":"3","viability, normalised (%)":"42.7 (active)"}
{"target gene":"BRD7P3 (bromodomain containing 7 pseudogene 3)","technical replicate":"1","viability, normalised (%)":"37.3 (active)"}
{"target gene":"BRD7P3 (bromodomain containing 7 pseudogene 3)","technical replicate":"2","viability, normalised (%)":"51.9 (active)"}
{"target gene":"BRD7P3 (bromodomain containing 7 pseudogene 3)","technical replicate":"3","viability, normalised (%)":"48.5 (active)"}
{"target gene":"GRK5 (G protein-coupled receptor kinase 5)","technical replicate":"1","viability, normalised (%)":"72.5 (active)"}
{"target gene":"GRK5 (G protein-coupled receptor kinase 5)","technical replicate":"2","viability, normalised (%)":"59 (active)"}
{"target gene":"GRK5 (G protein-coupled receptor kinase 5)","technical replicate":"3","viability, normalised (%)":"59.5 (active)"}

Laid out differently: results already given.
GRK5 (G protein-coupled receptor kinase 5), technical replicate 2
- viability, normalised (%): 59 (active)

GRK5 (G protein-coupled receptor kinase 5), technical replicate 3
- viability, normalised (%): 59.5 (active)

The listing continues:
{"target gene":"DGKB (diacylglycerol kinase beta)","technical replicate":"1","viability, normalised (%)":80.6}
{"target gene":"DGKB (diacylglycerol kinase beta)","technical replicate":"2","viability, normalised (%)":85.1}
{"target gene":"DGKB (diacylglycerol kinase beta)","technical replicate":"3","viability, normalised (%)":"42.4 (active)"}
{"target gene":"IGF1R (insulin like growth factor 1 receptor)","technical replicate":"1","viability, normalised (%)":"55.4 (active)"}
{"target gene":"IGF1R (insulin like growth factor 1 receptor)","technical replicate":"2","viability, normalised (%)":"58.8 (active)"}
{"target gene":"IGF1R (insulin like growth factor 1 receptor)","technical replicate":"3","viability, normalised (%)":"44.6 (active)"}
{"target gene":"SPHK2 (sphingosine kinase 2)","technical replicate":"1","viability, normalised (%)":"42.3 (active)"}
{"target gene":"SPHK2 (sphingosine kinase 2)","technical replicate":"2","viability, normalised (%)":"37.9 (active)"}
{"target gene":"SPHK2 (sphingosine kinase 2)","technical replicate":"3","viability, normalised (%)":"25.8 (active)"}
{"target gene":"IRAK1 (interleukin 1 receptor associated kinase 1)","technical replicate":"1","viability, normalised (%)":"43.9 (active)"}
{"target gene":"IRAK1 (interleukin 1 receptor associated kinase 1)","technical replicate":"2","viability, normalised (%)":"36.9 (active)"}
{"target gene":"IRAK1 (interleukin 1 receptor associated kinase 1)","technical replicate":"3","viability, normalised (%)":"45.2 (active)"}
{"target gene":"KPNA4 (karyopherin subunit alpha 4)","technical replicate":"1","viability, normalised (%)":120}
{"target gene":"KPNA4 (karyopherin subunit alpha 4)","technical replicate":"2","viability, normalised (%)":"66.4 (active)"}
{"target gene":"KPNA4 (karyopherin subunit alpha 4)","technical replicate":"3","viability, normalised (%)":"58.9 (active)"}
{"target gene":"EPHA8 (EPH receptor A8)","technical replicate":"1","viability, normalised (%)":102}
{"target gene":"EPHA8 (EPH receptor A8)","technical replicate":"2","viability, normalised (%)":"75.5 (active)"}
{"target gene":"EPHA8 (EPH receptor A8)","technical replicate":"3","viability, normalised (%)":"49.5 (active)"}
{"target gene":"PSKH1 (protein serine kinase H1)","technical replicate":"1","viability, normalised (%)":"70.6 (active)"}
{"target gene":"PSKH1 (protein serine kinase H1)","technical replicate":"2","viability, normalised (%)":"62.6 (active)"}
{"target gene":"PSKH1 (protein serine kinase H1)","technical replicate":"3","viability, normalised (%)":"61.9 (active)"}
